Assay results reported in patent publication US20260241012A1, “1,8-NAPHTHYRIDIN-2-ONE HETEROBIFUNCTIONAL BCL6 DEGRADERS” (Treeline Biosciences, Inc., priority 2022, published 2026).
The structures given here were assigned with low confidence; some may be wrong.

Molecular target: N-terminal HiBiT tagged BCL6 (Homo sapiens, UniProt P41182)
Experiment: HiBiT based degradation assay
Conditions: HT1080 cells expressing N-terminal HiBiT tagged BCL6, 5 hours of incubation
Excerpt: Human BCL6 protein coding open reading frame fused with N-terminal HiBiT coding sequence was synthesized from Integrated DNA Technologies (IDT). Next, the N-HiBiT-BCL6 sequence was cloned into pLV-UBC-PGK-Puro, a lentivirus plasmid purchased from Vectorbuilder, to generate pLV-UBC-N-HiBiT-BCL6-PGK-puro. Lentiviral particles were generated from Lenti-X™ 293T cells (Clontech) by co-transfection of pLV-UBC-N-HiBiT-BCL6-PGK-puro plasmids and lentiviral packaging plasmid mix (Cellecta). HT1080 [HT1080] (ATCC CCL-121) cells were infected with the lentivirus, and HT1080 cells stably integrated with the lentiviral vectors were established by incubation with 1 μg/mL puromycin (Thermofisher).
HT1080 cells expressing N-terminal HiBiT tagged BCL6 were dispensed into a 384-well plate pre-spotted with compounds at varying concentrations. Five thousand cells were seeded into each well in 40 μL of RPMI 1640 media plus 10% Fetal Bovine Serum (10082-147, Thermofisher). After 5 hours of incubation at 37° C. with 5% CO2, 30 μL of the NANO-GLOR HiBiT Lytic Detection System working solution (Promega) was added to each well and incubated at room temperature for 15 min. After incubation, luminescence was read on a PHERAstar FSX Plate Reader (BMG). BCL6 degradation at each indicated concentration was normalized with DMSO control. The BCL6 degradation curves were plotted using a four-parameter logistic model.

Ymin (5 hr) (BCL6 degradation normalized with DMSO control): ++++ (Ymin < 30%)
EC50 (read-out: EC50 (5 hr), four-parameter logistic model): < 10 nM
Structure (SMILES): CNC(=O)COc1cc2cc(Nc3nc(N4CCC5(CCN(CC6CCN(c7ccc8c(C9CCC(=O)NC9=O)nn(C)c8c7)CC6)CC5)CC4)ncc3Cl)cnc2n(C)c1=O (centres unmarked)
